According to publication PMC1399460, “Synthesis and glycosidase inhibitory activity of new hexa-substituted C8-glycomimetics” (Beilstein Journal of Organic Chemistry, 2005):

Legend:
[1] = tested on: T1, amyloglucosidase from Rhizopus mold; assay: glycosidase inhibition assay; type: biochemical, Rhizopus sp.; settings: 1 mM inhibitor, optimal pH
T1 construct: commercial native enzyme preparation

[2] = tested on: T2, β-D-glucosidase from almonds; assay: glycosidase inhibition assay; type: biochemical, Prunus dulcis; settings: 1 mM inhibitor, optimal pH
T2 construct: gene emulsin

Structure (SMILES)	% inhibition at 1 mM [1] [%]	% inhibition at 1 mM [2] [%]
O[C@H]1[C@H](O)[C@@H](O)C[C@H](O)[C@H](O)C[C@@H]1O [compound 5, C8 hexa-substituted carbasugar 5]	20	–
O[C@H]1[C@H](O)[C@H](O)C[C@H](O)[C@H](O)C[C@H]1O [compound 6, C8 hexa-substituted carbasugar 6]	21	–
N[C@H]1C[C@H](O)[C@@H](O)[C@H](O)[C@@H](O)C[C@@H]1O [compound 15, aminocyclitol 15]	23	7
N[C@@H]1C[C@@H](O)[C@@H](O)[C@H](O)[C@H](O)C[C@H]1O [compound 16, aminocyclitol 16]	20	11
OCC(CO)N[C@H]1C[C@H](O)[C@@H](O)[C@H](O)[C@@H](O)C[C@@H]1O [compound 19, C8-voglibose mimetic 19]	28	–
OCC(CO)N[C@@H]1C[C@@H](O)[C@@H](O)[C@H](O)[C@H](O)C[C@H]1O [compound 20, aminocyclitol 20]	27	19
